Measured values as given in article PMC12310523.

By UniProt entry, the sequences of proteins in these tests, tags left out. Where a name states a change or a piece, a line headed by the entry shows the natural chain unless it says otherwise.
UniProt Q14527: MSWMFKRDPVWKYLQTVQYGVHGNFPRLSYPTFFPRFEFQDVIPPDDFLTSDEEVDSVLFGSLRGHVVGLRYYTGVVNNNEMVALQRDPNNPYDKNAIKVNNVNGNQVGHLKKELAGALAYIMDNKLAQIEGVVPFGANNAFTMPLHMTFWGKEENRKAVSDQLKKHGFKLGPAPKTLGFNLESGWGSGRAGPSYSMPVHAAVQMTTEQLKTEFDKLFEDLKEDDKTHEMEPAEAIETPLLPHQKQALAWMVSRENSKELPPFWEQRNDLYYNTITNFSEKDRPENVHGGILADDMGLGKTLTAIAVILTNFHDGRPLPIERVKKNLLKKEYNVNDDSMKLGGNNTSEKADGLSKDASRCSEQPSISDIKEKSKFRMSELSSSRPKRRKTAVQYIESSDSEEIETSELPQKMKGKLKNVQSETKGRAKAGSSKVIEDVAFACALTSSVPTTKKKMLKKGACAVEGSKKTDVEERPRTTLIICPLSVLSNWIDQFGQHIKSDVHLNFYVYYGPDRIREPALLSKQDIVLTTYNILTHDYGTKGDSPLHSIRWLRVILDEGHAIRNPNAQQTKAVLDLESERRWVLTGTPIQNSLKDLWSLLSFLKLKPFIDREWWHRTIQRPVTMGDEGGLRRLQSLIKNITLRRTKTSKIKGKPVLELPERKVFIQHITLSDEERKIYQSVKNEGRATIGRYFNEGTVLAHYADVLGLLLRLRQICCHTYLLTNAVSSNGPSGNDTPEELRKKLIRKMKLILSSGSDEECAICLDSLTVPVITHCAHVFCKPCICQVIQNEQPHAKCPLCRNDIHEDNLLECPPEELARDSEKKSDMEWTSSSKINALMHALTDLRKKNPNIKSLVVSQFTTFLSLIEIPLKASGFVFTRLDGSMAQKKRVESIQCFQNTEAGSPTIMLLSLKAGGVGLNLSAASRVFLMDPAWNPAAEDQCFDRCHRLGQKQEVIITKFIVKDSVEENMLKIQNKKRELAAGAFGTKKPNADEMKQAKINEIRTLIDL

Biological target: T1, StrepII-tagged and SUMO-tagged SMARCA3 (residues 26–39) (UniProt Q14527)
T1 sequence: PRLSYPTFFPRFEF
Assay: pull-down; StrepII-tagged proteins held on StrepTactin Sepharose; purified ANXA2(S100A) added for 1 h; binding buffer 50 mM HEPES, 200 mM NaCl, pH 7.5; eluted with 50 mM biotin; SDS–PAGE, Coomassie; both purified

Substance: ANXA2–S100A complex
- binding: binds

These are yes or no findings as the source states them, for the method shown. Binding can be weak; no strength is given. Tags and fused reporters may be left off the sequences shown.
